Assay results reported in the supplement of paper PMC12067093, “Discovery and optimisation of a covalent ligand for TRIM25 and its application to targeted protein ubiquitination” (Chemical Science, 2025).
The list shows a part of the results.

compound: CC1Cc2ccccc2N1C(=O)C1CCCN(C1)C(=O)CCl (mixture of isomers) [TRIM25 ligand 11 (diastereomer mixture)]; test: probe-labelled cysteine peptide fold change vs DMSO (competition) (log2 fold change); higher = less target engagement (more negative = stronger competition); settings: 50 µM; THP-1; incubation time: 4 h
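Also: competitive chemoproteomic profiling in live THP-1 cells with an iodoacetamide desthiobiotin (IA-DTB) probe, comparing probe-labelled peptide intensities in compound-treated cells against DMSO-treated controls.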

Target | probe-labelled cysteine peptide fold change
NBN_O60934_478_ERDEENQEMSSCK (UniProt O60934) | -0.331
MYO1G_B0I1T2_472_GILAVLDEACSSAGTITDR (UniProt B0I1T2) | 0.0614
NAA80_Q93015_104_LHSLGQSSDAFPLCLMLLSPHPTLEAAPVVVGHAR (UniProt Q93015) | -0.0231
NAA16_Q6N069_82_SHVCWHVYGLLQR (UniProt Q6N069) | 0.0504
MYH9_P35579_917_KQELEEICHDLEARVEEEEER (UniProt P35579) | -0.158
MYL6_P60660-2_138_MTEEEVEMLVAGHEDSNGCINYEELVR (UniProt P60660) | -0.191
NCAM1_P13591_96_CVVTGEDGSESEATVNVK (UniProt P13591) | 0.126
NAPA_P54920_212+215_AALCHFCIDMLNAK (UniProt P54920) | 0.149
NCAPG_Q9BPX3_843_ICNEILTSPCSPEIR (UniProt Q9BPX3) | -0.0965
MYO9B_Q13459_152_QQADFDDLCNLPELTEGNLLK (UniProt Q13459) | -0.0276
NBEAL2_Q6ZNJ1_822_TLCTLGPNETAPFKPEGELHELSTR (UniProt Q6ZNJ1) | 0.106
NANS_Q9NR45_19_WVGGQHPCFIIAEIGQNHQGDLDVAK (UniProt Q9NR45) | 0.0782
NCBP1_Q09161_332_TCAAQLVSYPGK (UniProt Q09161) | -0.119
NADK2_Q4G0N4_311_SSGLNLCTGTGSK (UniProt Q4G0N4) | -0.0319
NCAM1_P13591_829_GPVEAKPECQETETK (UniProt P13591) | 0.319
MYO6_Q9UM54_1110_DTINTSCDIELLAACR (UniProt Q9UM54) | 0.113
NAXE_Q8NCW5_158_RPNKPLFTALVTQCQK (UniProt Q8NCW5) | -0.265
NASP_P49321_568_LGEVSVESENYVQAVEEFQSCLNLQEQYLEAHDR (UniProt P49321) | 0.217
NCDN_Q9UBB6-2_5_ASDCEPALNQAEGR (UniProt Q9UBB6) | -0.297
NCAM2_O15394_380_YDCEAASR (UniProt O15394) | 0.393

Part of the list above, as labelled records:
MYH9_P35579_917_KQELEEICHDLEARVEEEEER (UniProt P35579)
  probe-labelled cysteine peptide fold change: -0.158
MYL6_P60660-2_138_MTEEEVEMLVAGHEDSNGCINYEELVR (UniProt P60660)
  probe-labelled cysteine peptide fold change: -0.191
NCAM1_P13591_96_CVVTGEDGSESEATVNVK (UniProt P13591)
  probe-labelled cysteine peptide fold change: 0.126

(listing goes on)

Target | probe-labelled cysteine peptide fold change
NCAPD2_Q15021_772_CSSVMLLGMMAR (UniProt Q15021) | 0.0532
MYO18A_Q92614_404_ANAPSCDRLEDLASLVYLNESSVLHTLR (UniProt Q92614) | -0.149
NAPG_Q99747_193_EIENYPTCYK (UniProt Q99747) | 0.23
MYO6_Q9UM54_1102_DTINTSCDIELLAACREEFHR (UniProt Q9UM54) | -0.185
MYO6_Q9UM54_252_LCAGASEDIR (UniProt Q9UM54) | 0.415
MYO6_Q9UM54_321_MCTAMK (UniProt Q9UM54) | -0.145
MYO6_Q9UM54_790_RVNHWLTCSR (UniProt Q9UM54) | 0.254
NCAM2_O15394_42_FFTCTAIGEPESIDWYNPQGEK (UniProt O15394) | 0.104
NANS_Q9NR45_8_PLELELCPGR (UniProt Q9NR45) | 0.0856
NBN_O60934_31_NCAILIENDQSISR (UniProt O60934) | 0.0414
MYO1G_B0I1T2_97_DTCIVISGESGAGK (UniProt B0I1T2) | 0.138
NAXD_Q8IW45_108_VGADLSHVFCASAAAPVIK (UniProt Q8IW45) | -0.0774
NAPA_P54920_84_HDAATCFVDAGNAFKK (UniProt P54920) | -0.017
NADSYN1_Q6IA69_627_HICTPR (UniProt Q6IA69) | 0.175
NCAPD3_P42695_143_CIQTLK (UniProt P42695) | 0.12
NCAPG2_Q86XI2_776_NRECLLSAPR (UniProt Q86XI2) | -0.00285
NANP_Q8TBE9_49_EEAEIICDK (UniProt Q8TBE9) | 0.0345
NCAPH_Q15003_114_FTNTQITEHYSTCIK (UniProt Q15003) | -0.135
MYO1G_B0I1T2_979_VSDCIPLSHR (UniProt B0I1T2) | 0.122
NAPRT_Q6XQN6_101_ALDCSEVTVR (UniProt Q6XQN6) | 0.0528
